The values that follow come from the supplement of paper PMC8728848.

This is one part of the list.

Holding throughout (test): glycan array binding signal (z-score within array); higher = stronger binding
Settings in all cases: glycan notation: IUPAC condensed, linker removed

In experiment [1] the test system is Fuc(a1-2)[Gal(a1-3)]Gal(b1-3)GalNAc. An outline of the steps:
(§1)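 The binding signal is a Z-score computed within each array. Data were drawn from 3228 arrays in the Consortium for Functional Glycomics database, restricted to those with a known protein sequence. Scores were averaged over arrays of the same protein sequence at different concentrations or buffers, and over linkers, and negative values can be taken as non-binding.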

For experiment [2], the system named is Fuc(a1-2)[Gal(a1-3)]Gal(b1-3)GlcNAc(b1-2)Man(a1-3)[Fuc(a1-2)[Gal(a1-3)]Gal(b1-3)GlcNAc(b1-2)Man(a1-6)]Man(b1-4)GlcNAc(b1-4)[Fuc(a1-6)]GlcNAc. The gist of the method: as §1
Experiment [3] concerns Fuc(a1-2)[GalNAc(a1-3)]Gal(b1-3)GlcNAc(b1-2)Man(a1-3)[Fuc(a1-2)[GalNAc(a1-3)]Gal(b1-3)GlcNAc(b1-2)Man(a1-6)]Man(b1-4)GlcNAc(b1-4)[Fuc(a1-6)]GlcNAc. The gist of the method: as §1

As for BambL (Burhholderia ambifaria), Q0B4G1, the “glycan array binding signal (z-score)” value in experiment [1] is -0.313; in experiment [2], -0.074; in experiment [3] it was 0.01.

“SiiE (Salmonella typhimurium), A0A0H3NVH0”: the “glycan array binding signal (z-score)” value is -0.005 in experiment [1], -1.02 in experiment [2] and -1.32 in experiment [3].
